{"source": "PubChem BioAssay AID1053208 (Peter MacCallum Cancer Centre, 2014)", "aim": "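Synthetic lethal interactions between gene loss and doxorubicin in osteosarcoma cells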 (primary screen)", "cell system": "mouse osteosarcoma cells, early-passage culture from an engineered mouse model of fibroblastic bone tumour", "reagent": "siRNA pool against mouse genes, 40 nM", "time to read-out": "about 120 h (48 h before drug, then 72 h with drug)", "challenge": "doxorubicin 100 nM for 72 h, roughly 30-40% inhibitory dose", "measurement": "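Luminescent ATP signal taken as viability with or without 100 nM doxorubicin for 72 h; mean of two wells set against non-targeting siRNA and turned into robust z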", "reading the numbers": "viability z-score with doxorubicin: higher = more viable cells under doxorubicin; viability z-score without drug: higher = more viable cells with knock-down alone", "call rule": "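a pool counts as active when its viability z-score with doxorubicin is -2 or below and its z-score without drug lies between -2 and 2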", "note": "The whole screen tested about 17,000 reagents; shown is a random part of them. 788 of all reagents (4.7%) count as active. 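Calls rest on z-score classes alone; an extra cut-off of viability at most 70% of control was not applied to them.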 Reagents against one gene are numbered here. Further read-outs or replicates are left out here."}
{"gene": "Hace1 (GeneID 209462)", "reagent no.": 1, "combined z-score class": "no change with or without drug", "viability z-score with doxorubicin": 1.35, "viability z-score without drug": 0.84, "outcome": "inactive"}
{"gene": "Nckipsd (GeneID 80987)", "reagent no.": 1, "combined z-score class": "no change with or without drug", "viability z-score with doxorubicin": 0.67, "viability z-score without drug": -0.51, "outcome": "inactive"}
{"gene": "Zbtb32 (GeneID 58206)", "reagent no.": 1, "combined z-score class": "no change with or without drug", "viability z-score with doxorubicin": -1.24, "viability z-score without drug": -1.52, "outcome": "inactive"}
{"gene": "Xrcc3 (GeneID 74335)", "reagent no.": 1, "combined z-score class": "no change with or without drug", "viability z-score with doxorubicin": 0, "viability z-score without drug": 0.67, "outcome": "inactive"}
{"gene": "Or9m2 (GeneID 258639)", "reagent no.": 1, "combined z-score class": "no change with or without drug", "viability z-score with doxorubicin": 0.56, "viability z-score without drug": -0.67, "outcome": "inactive"}
{"gene": "Irf1 (GeneID 16362)", "reagent no.": 1, "combined z-score class": "high cell count without drug only", "viability z-score with doxorubicin": 0, "viability z-score without drug": 3.37, "outcome": "inactive"}
{"gene": "Slc25a21 (GeneID 217593)", "reagent no.": 1, "combined z-score class": "no change with or without drug", "viability z-score with doxorubicin": 0.45, "viability z-score without drug": 0.84, "outcome": "inactive"}
{"gene": "Spaca7b (GeneID 76413)", "reagent no.": 1, "combined z-score class": "no change with or without drug", "viability z-score with doxorubicin": -1.46, "viability z-score without drug": -0.17, "outcome": "inactive"}
{"gene": "Vmn1r18 (GeneID 171199)", "reagent no.": 1, "combined z-score class": "no change with or without drug", "viability z-score with doxorubicin": -0.45, "viability z-score without drug": 0.51, "outcome": "inactive"}
{"gene": "Rmnd5b (GeneID 66089)", "reagent no.": 1, "combined z-score class": "low cell count with and without drug", "viability z-score with doxorubicin": -2.36, "viability z-score without drug": -3.2, "outcome": "inactive"}
{"gene": "Hoxb8 (GeneID 15416)", "reagent no.": 1, "combined z-score class": "no change with or without drug", "viability z-score with doxorubicin": 0.79, "viability z-score without drug": 0.67, "outcome": "inactive"}
{"gene": "Hdac10 (GeneID 170787)", "reagent no.": 1, "combined z-score class": "no change with or without drug", "viability z-score with doxorubicin": 0.34, "viability z-score without drug": -0.17, "outcome": "inactive"}
{"gene": "Zfp677 (GeneID 210503)", "reagent no.": 1, "combined z-score class": "no change with or without drug", "viability z-score with doxorubicin": 0.67, "viability z-score without drug": 1.18, "outcome": "inactive"}
{"gene": "Chad (GeneID 12643)", "reagent no.": 1, "combined z-score class": "no change with or without drug", "viability z-score with doxorubicin": -1.46, "viability z-score without drug": -0.51, "outcome": "inactive"}
{"gene": "Tymp (GeneID 72962)", "reagent no.": 1, "combined z-score class": "no change with or without drug", "viability z-score with doxorubicin": -1.57, "viability z-score without drug": -1.52, "outcome": "inactive"}
{"gene": "Wnt6 (GeneID 22420)", "reagent no.": 1, "combined z-score class": "no change with or without drug", "viability z-score with doxorubicin": 0, "viability z-score without drug": 0.67, "outcome": "inactive"}
{"gene": "Elovl7 (GeneID 74559)", "reagent no.": 1, "combined z-score class": "no change with or without drug", "viability z-score with doxorubicin": 0.22, "viability z-score without drug": 0.67, "outcome": "inactive"}
{"gene": "Vpreb3 (GeneID 22364)", "reagent no.": 1, "combined z-score class": "no change with or without drug", "viability z-score with doxorubicin": 1.01, "viability z-score without drug": -0.51, "outcome": "inactive"}
{"gene": "Pabir2 (GeneID 78755)", "reagent no.": 1, "combined z-score class": "no change with or without drug", "viability z-score with doxorubicin": 0.67, "viability z-score without drug": -0.17, "outcome": "inactive"}
{"gene": "Maea (GeneID 59003)", "reagent no.": 1, "combined z-score class": "no change with or without drug", "viability z-score with doxorubicin": -0.11, "viability z-score without drug": 0.17, "outcome": "inactive"}
{"gene": "Cab39l (GeneID 69008)", "reagent no.": 1, "combined z-score class": "no change with or without drug", "viability z-score with doxorubicin": -0.22, "viability z-score without drug": 1.01, "outcome": "inactive"}
{"gene": "Vmn2r89 (GeneID 22301)", "reagent no.": 1, "combined z-score class": "low cell count with doxorubicin only", "viability z-score with doxorubicin": -2.47, "viability z-score without drug": -0.84, "outcome": "active"}
{"gene": "Vmn2r89 (GeneID 22301)", "reagent no.": 2, "combined z-score class": "no change with or without drug", "viability z-score with doxorubicin": -1.57, "viability z-score without drug": -0.84, "outcome": "inactive"}
{"gene": "Alg14 (GeneID 66789)", "reagent no.": 1, "combined z-score class": "no change with or without drug", "viability z-score with doxorubicin": -1.01, "viability z-score without drug": -1.01, "outcome": "inactive"}
{"gene": "Eif3l (GeneID 223691)", "reagent no.": 1, "combined z-score class": "no change with or without drug", "viability z-score with doxorubicin": -1.12, "viability z-score without drug": 0.17, "outcome": "inactive"}
{"gene": "Bbs9 (GeneID 319845)", "reagent no.": 1, "combined z-score class": "no change with or without drug", "viability z-score with doxorubicin": 0.9, "viability z-score without drug": 0.84, "outcome": "inactive"}
{"gene": "Nrep (GeneID 27528)", "reagent no.": 1, "combined z-score class": "no change with or without drug", "viability z-score with doxorubicin": 1.01, "viability z-score without drug": -0.84, "outcome": "inactive"}
{"gene": "Or8b43 (GeneID 258798)", "reagent no.": 1, "combined z-score class": "high cell count without drug only", "viability z-score with doxorubicin": 0.45, "viability z-score without drug": 2.87, "outcome": "inactive"}

2 entries from above, reduced to “viability z-score with doxorubicin”.
Nckipsd (GeneID 80987): 0.67
Zbtb32 (GeneID 58206): -1.24
